PubChem BioAssay AID602196, INSERM | 2012
This is an unselected part of about 23,000 reagents tested. In the full data, 455 (2%) are marked active. 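Active includes both protection and sensitisation; some change values fall well beyond the stated -50 to +50 range.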 Entries without a mark were called inactive. Not all columns of the deposit are shown. Reagent sequences are not shown. Not stated in the record: the amount of reagent.

Aim: 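Genes whose knock-down alters cisplatin killing of lung cancer cells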
Cell system: human A549 lung cancer cells
Reagent: siRNA pair against human genes
Duration: 48 h transfection before cisplatin; time from cisplatin to read-out not stated
Treatment: cisplatin at a dose killing half of control-siRNA cells; exact dose and duration not given
Read-out: 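Cisplatin cell death as a shift from the 50% death seen with control siRNA; siRNAs toxic or growth-blocking alone scored 0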
Direction: two-siRNA summed score (-2 to +2): higher = both siRNAs protect from cisplatin killing; -2 means both sensitise
Call rule: 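Each siRNA scores 0 if harmful alone by LDH or WST-1, otherwise +1 if it reduces and -1 if it increases cisplatin killing; a gene is active when both siRNAs agree (sum +2 or -2)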
Meaning of the calls: active = both siRNAs shift cisplatin killing the same way; inactive = no consistent shift, or siRNA harmful alone

ZNF667 (GeneID 63934) gave two-siRNA summed score (-2 to +2) = 0. For SLC39A7 (GeneID 7922), the values are two-siRNA summed score (-2 to +2) = 0. IL3RA (GeneID 3563) showed two-siRNA summed score (-2 to +2) = 0. PSMA7 (GeneID 5688) scored two-siRNA summed score (-2 to +2) = 0. PDGFD (GeneID 80310) showed two-siRNA summed score (-2 to +2) = -1. Depletion of AADACP1 (GeneID 201651) came out at: two-siRNA summed score (-2 to +2) = 1.

Silencing of UPP1 (GeneID 7378) came out at: two-siRNA summed score (-2 to +2) = 0. LOC442102 scored two-siRNA summed score (-2 to +2) = 1. After knock-down of CAAP1 (GeneID 79886), the record shows two-siRNA summed score (-2 to +2) = 0. OMP (GeneID 4975) gave two-siRNA summed score (-2 to +2) = 0. After knock-down of ZNF620 (GeneID 253639), the record shows two-siRNA summed score (-2 to +2) = -1. Knock-down of CLDN2 (GeneID 9075) came out at: two-siRNA summed score (-2 to +2) = -1.

PLAC9P1 (GeneID 389033) gave two-siRNA summed score (-2 to +2) = 0. For ERMN (GeneID 57471) the deposit lists two-siRNA summed score (-2 to +2) = 0. With knock-down of LOC388277, the screen gave two-siRNA summed score (-2 to +2) = 0. Knock-down of LOC440800 gave: two-siRNA summed score (-2 to +2) = 0. LINC01148 (GeneID 283585) scored two-siRNA summed score (-2 to +2) = 0. With knock-down of STXBP4 (GeneID 252983) the results were two-siRNA summed score (-2 to +2) = 0.

Silencing of GOLGA8VP (GeneID 441736) came out at: two-siRNA summed score (-2 to +2) = 0. With knock-down of PPP2R3A (GeneID 5523), the screen gave two-siRNA summed score (-2 to +2) = 0. Knock-down of EIF3G (GeneID 8666) came out at: two-siRNA summed score (-2 to +2) = 0. Depletion of MLANA (GeneID 2315) gave: two-siRNA summed score (-2 to +2) = 0. With knock-down of LOC389095, the record shows two-siRNA summed score (-2 to +2) = 1. After knock-down of TNFRSF9 (GeneID 3604), the screen gave two-siRNA summed score (-2 to +2) = 0.

With knock-down of LCE2D (GeneID 353141) the results were two-siRNA summed score (-2 to +2) = 0. Against KCNJ5 (GeneID 3762), the entry reads two-siRNA summed score (-2 to +2) = 0. Knock-down of RARG (GeneID 5916) came out at: two-siRNA summed score (-2 to +2) = 0. PTCH1 (GeneID 5727) showed two-siRNA summed score (-2 to +2) = 0. For LOC391560, the values are two-siRNA summed score (-2 to +2) = 0. After knock-down of ACACA (GeneID 31) the results were two-siRNA summed score (-2 to +2) = 1.

LOC283999 gave two-siRNA summed score (-2 to +2) = 0.

5 of these entries in another layout:
| target gene | two-siRNA summed score (-2 to +2) |
| --- | --- |
| PPP2R3A (GeneID 5523) | 0 |
| EIF3G (GeneID 8666) | 0 |
| MLANA (GeneID 2315) | 0 |
| LOC389095 | 1 |
| TNFRSF9 (GeneID 3604) | 0 |
